The other results are listed elsewhere or left out.
What was measured:
Assay in all cases: log2 fold change, soluble protein after heating vs DMSO (PISA); higher = thermal stabilisation; K562 lysate, 10 uM; active = over 0.2 and 3.5 SD of the protein, either way, in both replicates (recomputed)
nilotinib = compound: Cc1cn(-c2cc(NC(=O)c3ccc(C)c(Nc4nccc(-c5cccnc5)n4)c3)cc(C(F)(F)F)c2)cn1 [nilotinib]
Procedure, shortened: (§1)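 Values give the log-two fold change in thermal stability against solvent controls, from duplicates. Crude K562 extract at 1 mg/mL protein, made by dounce homogenisation in PBS pH 7.4 with 1 mM MgCl2, was treated with 10 μM compound for 30 min. After 3 min heating across 48°C-58°C, aliquots were pooled, adjusted to 0.5% NP-40 at 4°C and centrifuged at 21,000xg for 90 min. The supernatant was measured by TMTpro 16plex LC-MS/MS with channel sums equalised.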

Chains of the proteins cited; added tags and fusions are not shown. Lines headed by an entry give the natural chain unless they say otherwise; changes in a name come on top.
UniProt Q9Y3D0: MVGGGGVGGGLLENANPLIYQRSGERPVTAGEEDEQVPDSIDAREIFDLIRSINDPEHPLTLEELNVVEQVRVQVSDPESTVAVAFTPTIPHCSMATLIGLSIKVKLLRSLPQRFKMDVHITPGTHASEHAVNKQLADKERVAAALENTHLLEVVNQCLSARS
UniProt P12277: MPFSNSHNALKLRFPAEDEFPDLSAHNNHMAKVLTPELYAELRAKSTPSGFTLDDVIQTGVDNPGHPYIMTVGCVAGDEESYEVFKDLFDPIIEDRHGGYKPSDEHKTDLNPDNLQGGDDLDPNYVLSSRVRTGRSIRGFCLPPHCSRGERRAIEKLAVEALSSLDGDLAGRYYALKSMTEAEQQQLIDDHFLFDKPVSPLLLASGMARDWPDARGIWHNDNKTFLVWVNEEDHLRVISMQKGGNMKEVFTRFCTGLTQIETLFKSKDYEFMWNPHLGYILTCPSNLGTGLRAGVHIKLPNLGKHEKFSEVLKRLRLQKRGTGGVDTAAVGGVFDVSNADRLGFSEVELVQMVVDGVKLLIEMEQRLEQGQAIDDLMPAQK
UniProt Q16740, whole entry, looked up: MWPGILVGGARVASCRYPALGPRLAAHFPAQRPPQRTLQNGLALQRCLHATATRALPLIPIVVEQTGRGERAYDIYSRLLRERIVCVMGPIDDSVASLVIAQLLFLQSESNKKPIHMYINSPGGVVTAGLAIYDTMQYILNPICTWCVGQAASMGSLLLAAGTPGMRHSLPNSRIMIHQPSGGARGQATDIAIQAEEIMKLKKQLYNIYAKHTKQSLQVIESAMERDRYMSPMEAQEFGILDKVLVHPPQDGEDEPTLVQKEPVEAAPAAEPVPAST
UniProt Q9NX76: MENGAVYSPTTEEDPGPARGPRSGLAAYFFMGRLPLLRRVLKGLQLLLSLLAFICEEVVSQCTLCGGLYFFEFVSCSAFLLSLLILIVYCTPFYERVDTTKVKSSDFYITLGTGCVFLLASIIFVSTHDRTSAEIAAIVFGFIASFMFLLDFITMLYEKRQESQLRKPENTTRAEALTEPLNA
UniProt P09497: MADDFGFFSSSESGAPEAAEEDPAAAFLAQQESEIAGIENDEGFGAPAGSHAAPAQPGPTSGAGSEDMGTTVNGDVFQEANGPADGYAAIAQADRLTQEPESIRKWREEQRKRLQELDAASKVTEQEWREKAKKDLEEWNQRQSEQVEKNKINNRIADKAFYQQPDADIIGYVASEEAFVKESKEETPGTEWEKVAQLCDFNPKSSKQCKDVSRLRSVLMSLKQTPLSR
UniProt O75153: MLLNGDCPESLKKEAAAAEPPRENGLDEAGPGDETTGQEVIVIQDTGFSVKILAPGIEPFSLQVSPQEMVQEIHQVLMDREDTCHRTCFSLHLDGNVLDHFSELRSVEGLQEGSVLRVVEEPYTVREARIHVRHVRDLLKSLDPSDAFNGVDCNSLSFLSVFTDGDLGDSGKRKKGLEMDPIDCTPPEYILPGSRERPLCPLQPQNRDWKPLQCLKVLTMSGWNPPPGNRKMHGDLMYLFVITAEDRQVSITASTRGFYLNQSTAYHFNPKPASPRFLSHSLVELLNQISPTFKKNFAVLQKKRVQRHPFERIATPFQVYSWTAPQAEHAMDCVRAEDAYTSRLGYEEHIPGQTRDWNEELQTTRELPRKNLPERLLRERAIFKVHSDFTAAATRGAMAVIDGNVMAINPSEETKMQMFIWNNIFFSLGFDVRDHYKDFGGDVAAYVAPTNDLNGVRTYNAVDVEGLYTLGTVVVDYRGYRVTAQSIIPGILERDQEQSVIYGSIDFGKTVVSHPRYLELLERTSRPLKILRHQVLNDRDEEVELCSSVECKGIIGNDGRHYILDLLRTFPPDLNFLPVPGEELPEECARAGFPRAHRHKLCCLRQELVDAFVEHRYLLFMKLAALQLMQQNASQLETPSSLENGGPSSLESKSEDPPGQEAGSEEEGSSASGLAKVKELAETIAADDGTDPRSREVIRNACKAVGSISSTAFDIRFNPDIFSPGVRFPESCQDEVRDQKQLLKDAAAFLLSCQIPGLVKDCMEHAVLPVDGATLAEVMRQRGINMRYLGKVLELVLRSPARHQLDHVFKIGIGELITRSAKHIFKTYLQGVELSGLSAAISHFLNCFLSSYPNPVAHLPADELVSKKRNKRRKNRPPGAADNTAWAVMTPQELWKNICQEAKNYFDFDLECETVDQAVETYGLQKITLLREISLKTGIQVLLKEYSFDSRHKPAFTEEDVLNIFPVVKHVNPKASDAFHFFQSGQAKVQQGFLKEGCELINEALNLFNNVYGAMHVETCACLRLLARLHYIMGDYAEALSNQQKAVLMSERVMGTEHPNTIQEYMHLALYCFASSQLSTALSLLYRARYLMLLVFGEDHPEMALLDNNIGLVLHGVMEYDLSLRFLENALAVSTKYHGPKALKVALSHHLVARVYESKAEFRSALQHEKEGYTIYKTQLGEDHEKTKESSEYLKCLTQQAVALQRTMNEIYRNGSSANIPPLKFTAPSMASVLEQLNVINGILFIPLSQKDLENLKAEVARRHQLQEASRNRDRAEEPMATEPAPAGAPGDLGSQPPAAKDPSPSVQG
UniProt Q9P2D1: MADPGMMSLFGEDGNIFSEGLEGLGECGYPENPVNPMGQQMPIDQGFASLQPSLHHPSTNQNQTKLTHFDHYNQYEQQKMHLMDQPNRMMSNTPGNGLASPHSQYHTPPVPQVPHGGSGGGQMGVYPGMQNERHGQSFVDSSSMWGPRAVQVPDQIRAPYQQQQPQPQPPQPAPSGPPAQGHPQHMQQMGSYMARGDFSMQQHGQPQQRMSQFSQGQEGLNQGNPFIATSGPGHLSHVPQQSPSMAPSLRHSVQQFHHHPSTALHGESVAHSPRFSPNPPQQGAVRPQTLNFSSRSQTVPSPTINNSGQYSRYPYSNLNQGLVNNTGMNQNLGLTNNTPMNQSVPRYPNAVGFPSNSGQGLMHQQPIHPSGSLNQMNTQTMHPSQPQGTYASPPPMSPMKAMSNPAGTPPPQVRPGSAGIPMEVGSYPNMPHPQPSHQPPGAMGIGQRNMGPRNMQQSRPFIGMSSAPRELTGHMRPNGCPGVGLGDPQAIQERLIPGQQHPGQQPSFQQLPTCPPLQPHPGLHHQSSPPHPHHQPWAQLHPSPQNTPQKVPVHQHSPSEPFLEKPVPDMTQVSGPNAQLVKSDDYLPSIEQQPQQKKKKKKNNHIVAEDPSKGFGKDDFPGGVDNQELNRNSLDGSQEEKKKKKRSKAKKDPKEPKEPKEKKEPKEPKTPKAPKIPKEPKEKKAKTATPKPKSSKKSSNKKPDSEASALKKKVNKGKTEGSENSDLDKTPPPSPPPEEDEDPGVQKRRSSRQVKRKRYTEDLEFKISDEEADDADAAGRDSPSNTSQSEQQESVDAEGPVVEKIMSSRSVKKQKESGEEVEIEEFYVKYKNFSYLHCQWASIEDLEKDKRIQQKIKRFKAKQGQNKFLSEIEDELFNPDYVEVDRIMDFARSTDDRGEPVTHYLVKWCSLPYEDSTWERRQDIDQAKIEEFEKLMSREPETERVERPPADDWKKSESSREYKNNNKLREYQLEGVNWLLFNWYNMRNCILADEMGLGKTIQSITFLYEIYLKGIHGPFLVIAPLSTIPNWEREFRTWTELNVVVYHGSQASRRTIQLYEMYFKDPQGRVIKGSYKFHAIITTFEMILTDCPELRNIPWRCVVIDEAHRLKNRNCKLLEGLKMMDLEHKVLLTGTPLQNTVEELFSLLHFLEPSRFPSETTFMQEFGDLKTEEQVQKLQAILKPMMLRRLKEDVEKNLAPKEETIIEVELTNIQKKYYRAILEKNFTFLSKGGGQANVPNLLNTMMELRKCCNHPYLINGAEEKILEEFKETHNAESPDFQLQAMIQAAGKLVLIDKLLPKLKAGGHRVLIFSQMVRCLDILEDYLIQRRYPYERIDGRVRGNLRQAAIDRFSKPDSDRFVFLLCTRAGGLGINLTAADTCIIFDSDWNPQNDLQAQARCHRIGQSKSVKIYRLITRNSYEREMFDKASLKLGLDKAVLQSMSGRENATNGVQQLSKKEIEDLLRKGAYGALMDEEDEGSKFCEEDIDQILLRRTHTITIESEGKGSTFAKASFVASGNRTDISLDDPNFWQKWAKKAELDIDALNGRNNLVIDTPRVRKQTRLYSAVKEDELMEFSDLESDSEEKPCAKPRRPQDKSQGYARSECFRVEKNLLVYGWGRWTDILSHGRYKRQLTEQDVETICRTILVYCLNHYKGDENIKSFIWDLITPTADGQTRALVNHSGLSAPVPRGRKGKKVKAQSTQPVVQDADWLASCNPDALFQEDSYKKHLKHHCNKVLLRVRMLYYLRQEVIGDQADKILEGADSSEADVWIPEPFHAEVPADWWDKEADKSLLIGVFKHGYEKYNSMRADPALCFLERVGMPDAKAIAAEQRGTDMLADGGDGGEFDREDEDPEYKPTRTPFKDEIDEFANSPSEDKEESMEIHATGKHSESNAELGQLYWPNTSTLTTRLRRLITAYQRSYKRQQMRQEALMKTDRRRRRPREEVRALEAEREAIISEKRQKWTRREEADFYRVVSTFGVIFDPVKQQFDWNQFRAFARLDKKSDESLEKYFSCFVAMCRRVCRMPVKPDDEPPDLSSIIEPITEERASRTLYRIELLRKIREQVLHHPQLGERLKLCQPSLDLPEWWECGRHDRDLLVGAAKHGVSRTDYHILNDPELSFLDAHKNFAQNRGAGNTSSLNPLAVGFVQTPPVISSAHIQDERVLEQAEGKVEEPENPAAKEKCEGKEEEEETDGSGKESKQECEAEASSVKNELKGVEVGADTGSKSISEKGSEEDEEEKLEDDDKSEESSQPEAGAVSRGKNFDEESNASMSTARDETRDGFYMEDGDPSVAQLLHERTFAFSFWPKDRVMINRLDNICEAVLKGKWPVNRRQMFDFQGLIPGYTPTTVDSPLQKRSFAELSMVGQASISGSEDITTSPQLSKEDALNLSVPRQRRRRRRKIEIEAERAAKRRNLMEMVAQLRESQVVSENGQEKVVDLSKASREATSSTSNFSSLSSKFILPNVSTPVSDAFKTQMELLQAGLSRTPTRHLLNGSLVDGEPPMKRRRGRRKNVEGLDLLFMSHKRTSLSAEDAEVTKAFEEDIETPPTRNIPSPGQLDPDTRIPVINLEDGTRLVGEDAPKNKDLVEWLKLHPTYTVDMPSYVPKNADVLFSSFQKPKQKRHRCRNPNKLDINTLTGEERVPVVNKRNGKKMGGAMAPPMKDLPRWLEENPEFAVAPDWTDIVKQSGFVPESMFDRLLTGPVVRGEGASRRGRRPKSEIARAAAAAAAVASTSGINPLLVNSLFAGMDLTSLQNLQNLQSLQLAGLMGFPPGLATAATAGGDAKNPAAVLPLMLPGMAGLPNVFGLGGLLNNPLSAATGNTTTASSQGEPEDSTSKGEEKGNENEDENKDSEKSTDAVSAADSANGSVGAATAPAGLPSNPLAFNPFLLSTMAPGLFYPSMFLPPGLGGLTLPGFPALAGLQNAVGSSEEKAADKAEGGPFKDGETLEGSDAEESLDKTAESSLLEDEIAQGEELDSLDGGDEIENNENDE
UniProt Q8WVB6, whole entry, looked up: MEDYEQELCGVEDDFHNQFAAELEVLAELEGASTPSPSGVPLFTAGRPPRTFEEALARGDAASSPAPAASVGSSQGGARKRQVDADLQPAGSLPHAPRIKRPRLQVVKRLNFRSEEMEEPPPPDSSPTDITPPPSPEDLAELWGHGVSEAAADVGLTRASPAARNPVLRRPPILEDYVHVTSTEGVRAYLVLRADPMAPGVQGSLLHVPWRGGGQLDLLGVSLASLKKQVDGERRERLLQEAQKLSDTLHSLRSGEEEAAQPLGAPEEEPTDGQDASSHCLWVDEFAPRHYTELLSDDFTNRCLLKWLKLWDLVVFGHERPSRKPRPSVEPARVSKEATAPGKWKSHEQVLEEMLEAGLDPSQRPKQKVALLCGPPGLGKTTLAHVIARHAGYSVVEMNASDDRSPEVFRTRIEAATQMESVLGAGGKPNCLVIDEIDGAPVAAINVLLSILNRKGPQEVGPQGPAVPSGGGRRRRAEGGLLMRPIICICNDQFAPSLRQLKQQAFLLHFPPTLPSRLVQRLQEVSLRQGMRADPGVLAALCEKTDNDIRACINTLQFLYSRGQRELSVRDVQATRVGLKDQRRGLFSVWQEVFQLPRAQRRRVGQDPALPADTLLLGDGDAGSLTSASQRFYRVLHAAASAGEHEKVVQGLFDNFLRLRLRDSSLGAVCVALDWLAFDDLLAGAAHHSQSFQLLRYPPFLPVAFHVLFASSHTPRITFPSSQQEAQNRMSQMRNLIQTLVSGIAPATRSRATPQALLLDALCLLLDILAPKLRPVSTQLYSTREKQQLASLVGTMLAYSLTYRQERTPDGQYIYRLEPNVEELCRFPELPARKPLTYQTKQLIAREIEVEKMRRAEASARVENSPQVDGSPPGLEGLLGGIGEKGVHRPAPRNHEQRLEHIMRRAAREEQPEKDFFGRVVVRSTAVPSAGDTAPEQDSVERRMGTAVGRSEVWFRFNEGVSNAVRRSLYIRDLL

[1] = compound: Cc1nc(Nc2n[nH]c3c2CN(C(=O)N[C@H](CN(C)C)c2ccccc2)C3(C)C)c2sccc2n1
Procedure, shortened: as §1

dasatinib = compound: Cc1nc(Nc2ncc(C(=O)Nc3c(C)cccc3Cl)s2)cc(N2CCN(CCO)CC2)n1 [dasatinib]
Procedure, shortened: as §1

[2] = compound: Cc1ncc(-c2ccnc(Nc3ccc(S(C)(=O)=O)cc3)n2)n1C(C)C
Procedure, shortened: as §1

[3] = compound: Cn1cc(-c2ccc3c(c2)CCN3C(=O)Cc2cccc(C(F)(F)F)c2)c2c(N)ncnc21
Procedure, shortened: as §1

quisinostat = compound: Cn1cc(CNCC2CCN(c3ncc(C(=O)NO)cn3)CC2)c2ccccc21 [quisinostat]
Procedure, shortened: as §1

tipifarnib = compound: Cn1cncc1[C@@](N)(c1ccc(Cl)cc1)c1ccc2c(c1)c(-c1cccc(Cl)c1)cc(=O)n2C [tipifarnib]
Procedure, shortened: as §1

[4] = compound: NC(=O)Nc1cc(-c2cccc(F)c2)sc1C(=O)N[C@H]1CCCNC1
Procedure, shortened: as §1

[5] = compound: NC(=O)c1cnc(N[C@@H]2CCCC[C@@H]2N)nc1Nc1cccc(-n2nccn2)c1
Procedure, shortened: as §1

[6] = compound: NC1(c2ccc(-c3nc4ccn5c(=O)[nH]nc5c4cc3-c3ccccc3)cc2)CCC1
Procedure, shortened: as §1

Measured: log2 fold change

CIAO2B (UniProt Q9Y3D0)
inactive: nilotinib 0.028 | [1] -0.008 | dasatinib -0.117 | [2] 0.036 | [3] -0.017 | quisinostat -0.032 | tipifarnib -0.013 | [4] 0.022 | [5] 0 | [6] 0.032

CHUK (UniProt O15111)
inactive: nilotinib -0.029 | [1] 0.015 | dasatinib -0.091 | [2] 0.035 | [3] 0.059 | quisinostat -0.131 | tipifarnib -0.015 | [4] 0.078 | [5] -0.006 | [6] -0.116

CLCN3 (UniProt P51790)
inactive: nilotinib 0.15 | [1] -0.043 | dasatinib -0.033 | [2] 0.117 | [3] 0.046 | quisinostat 0.056 | tipifarnib -0.097 | [4] -0.064 | [5] -0.002 | [6] 0.071

CIP2A (UniProt Q8TCG1)
inactive: nilotinib -0.006 | [1] 0.02 | dasatinib -0.107 | [2] 0.024 | [3] 0.054 | quisinostat -0.123 | tipifarnib 0.01 | [4] 0.019 | [5] 0.032 | [6] -0.014

CHMP7 (UniProt Q8WUX9)
inactive: nilotinib 0.029 | [1] 0.005 | dasatinib -0.075 | [2] 0.005 | [3] 0.053 | quisinostat 0.025 | tipifarnib -0.039 | [4] 0.024 | [5] -0.047 | [6] 0.007

CLSPN (UniProt Q9HAW4)
inactive: nilotinib 0.038 | [1] 0.029 | dasatinib 0.078 | [2] 0.007 | [3] -0.018 | quisinostat -0.043 | tipifarnib -0.047 | [4] -0.034 | [5] -0.007 | [6] 0.017

CLASP1 (UniProt Q7Z460)
inactive: nilotinib -0.015 | [1] 0.021 | dasatinib -0.097 | [2] 0.013 | [3] 0.016 | quisinostat -0.085 | tipifarnib -0.051 | [4] -0.022 | [5] 0.012 | [6] -0.018

CISD1 (UniProt Q9NZ45)
inactive: nilotinib 0.014 | [1] -0.022 | dasatinib -0.048 | [2] 0.02 | [3] -0.021 | quisinostat 0.031 | tipifarnib -0.009 | [4] -0.01 | [5] -0.007 | [6] 0.005

CLSTN3 isoform 2 (UniProt Q9BQT9)
inactive: nilotinib -0.027 | [1] -0.019 | dasatinib -0.053 | [2] -0.091 | [3] 0.007 | quisinostat 0.233 | tipifarnib -0.019 | [4] -0.034 | [5] 0.022 | [6] -0.03

CMSS1 (UniProt Q9BQ75)
inactive: nilotinib -0.025 | [1] 0.014 | dasatinib -0.019 | [2] 0 | [3] 0.014 | quisinostat 0.023 | tipifarnib 0.06 | [4] 0.013 | [5] 0.004 | [6] 0.031

CKB (UniProt P12277)
inactive: nilotinib -0.013 | [1] -0.017 | dasatinib -0.051 | [2] 0.001 | [3] 0 | quisinostat 0.035 | tipifarnib 0.018 | [4] 0.031 | [5] -0.013 | [6] 0.008

CISD2 (UniProt Q8N5K1)
inactive: nilotinib 0.049 | [1] -0.038 | dasatinib 0.019 | [2] 0.02 | [3] -0.013 | quisinostat -0.005 | tipifarnib -0.025 | [4] -0.013 | [5] 0.074 | [6] -0.005

CLPP (UniProt Q16740)
inactive: nilotinib 0 | [1] 0.011 | dasatinib 0.13 | [2] -0.022 | [3] 0.017 | quisinostat 0.022 | tipifarnib -0.008 | [4] -0.011 | [5] -0.017 | [6] 0.001

CMAS (UniProt Q8NFW8)
inactive: nilotinib 0.005 | [1] 0.018 | dasatinib -0.012 | [2] 0.031 | [3] 0 | quisinostat -0.006 | tipifarnib -0.007 | [4] 0.039 | [5] -0.011 | [6] -0.061

CLEC16A (UniProt Q2KHT3)
inactive: nilotinib 0.025 | [1] -0.015 | dasatinib 0.071 | [2] -0.017 | [3] 0.053 | quisinostat -0.029 | tipifarnib -0.022 | [4] -0.012 | [5] 0.001 | [6] 0.001

CLN8 (UniProt Q9UBY8)
inactive: nilotinib -0.106 | [1] 0.127 | dasatinib -0.015 | [2] 0.079 | [3] -0.002 | quisinostat 0.043 | tipifarnib -0.066 | [4] 0.035 | [5] -0.053 | [6] -0.094

CMTM6 (UniProt Q9NX76)
inactive: nilotinib 0.111 | [1] -0.043 | dasatinib -0.004 | [2] 0.063 | [3] 0.057 | quisinostat 0.026 | tipifarnib -0.008 | [4] -0.008 | [5] -0.08 | [6] 0.041

CLNS1A (UniProt P54105)
inactive: nilotinib 0.007 | [1] -0.021 | dasatinib 0.034 | [2] -0.005 | [3] 0.005 | quisinostat -0.029 | tipifarnib 0.013 | [4] 0.029 | [5] -0.017 | [6] -0.017

CLTB isoform 2 (UniProt P09497)
inactive: nilotinib 0.006 | [1] -0.002 | dasatinib 0.014 | [2] -0.006 | [3] -0.032 | quisinostat -0.021 | tipifarnib -0.003 | [4] -0.016 | [5] -0.018 | [6] -0.02

CLUH (UniProt O75153)
inactive: nilotinib 0.009 | [1] 0.075 | dasatinib -0.025 | [2] -0.007 | [3] 0.002 | quisinostat -0.043 | tipifarnib 0.007 | [4] 0.039 | [5] -0.006 | [6] 0.004

CLDND1 (UniProt Q9NY35)
inactive: nilotinib 0.077 | [1] 0.02 | dasatinib 0.069 | [2] -0.052 | [3] 0.076 | quisinostat -0.012 | tipifarnib -0.058 | [4] -0.08 | [5] 0.03 | [6] 0.023

CHRAC1 (UniProt Q9NRG0)
inactive: nilotinib 0.025 | [1] -0.064 | dasatinib -0.061 | [2] -0.032 | [3] 0.04 | quisinostat 0.032 | tipifarnib 0.079 | [4] 0.021 | [5] 0.027 | [6] 0.111

CHID1 (UniProt Q9BWS9)
inactive: nilotinib -0.024 | [1] 0.002 | dasatinib 0.013 | [2] -0.017 | [3] 0.023 | quisinostat 0.05 | tipifarnib 0.053 | [4] -0.012 | [5] 0.009 | [6] -0.004

CHCHD3 (UniProt Q9NX63)
inactive: nilotinib 0 | [1] 0 | dasatinib -0.009 | [2] -0.014 | [3] 0.023 | quisinostat 0 | tipifarnib 0.009 | [4] -0.018 | [5] 0.01 | [6] -0.001

CLTC (UniProt Q00610)
inactive: nilotinib 0.023 | [1] -0.024 | dasatinib -0.051 | [2] 0.008 | [3] 0.029 | quisinostat 0.06 | tipifarnib -0.003 | [4] 0.031 | [5] 0.005 | [6] -0.029

CHFR (UniProt Q96EP1)
inactive: nilotinib 0.035 | [1] 0.082 | dasatinib 0.017 | [2] 0.019 | [3] 0.049 | quisinostat 0.02 | tipifarnib 0.013 | [4] 0.036 | [5] 0.246 | [6] 0.005

CIC (UniProt I3L2J0)
inactive: nilotinib 0.045 | [1] 0.024 | dasatinib 0 | [2] 0.001 | [3] 0.006 | quisinostat 0.027 | tipifarnib -0.087 | [4] -0.053 | [5] -0.073 | [6] 0.014

CHCHD4 isoform 2 (UniProt Q8N4Q1)
inactive: nilotinib -0.029 | [1] 0.023 | dasatinib -0.035 | [2] -0.031 | [3] -0.018 | quisinostat -0.156 | tipifarnib 0.018 | [4] 0.032 | [5] -0.008 | [6] -0.028

Quoted from the results shown (2 entries):
CIC (UniProt I3L2J0)
inactive: nilotinib 0.045 | [1] 0.024 | dasatinib 0 | [2] 0.001 | [3] 0.006 | quisinostat 0.027 | tipifarnib -0.087 | [4] -0.053 | [5] -0.073 | [6] 0.014

CHCHD4 isoform 2 (UniProt Q8N4Q1)
inactive: nilotinib -0.029 | [1] 0.023 | dasatinib -0.035 | [2] -0.031 | [3] -0.018 | quisinostat -0.156 | tipifarnib 0.018 | [4] 0.032 | [5] -0.008 | [6] -0.028

Next part:

CHD7 (UniProt Q9P2D1)
inactive: nilotinib 0.06 | [1] 0.016 | dasatinib -0.107 | [2] -0.087 | [3] 0.089 | quisinostat 0.013 | tipifarnib -0.05 | [4] 0.002 | [5] -0.017 | [6] -0.02

CHTF18 (UniProt Q8WVB6)
inactive: nilotinib -0.002 | [1] -0.006 | dasatinib -0.04 | [2] -0.067 | [3] 0.081 | quisinostat -0.058 | tipifarnib 0 | [4] 0.117 | [5] -0.022 | [6] 0.017
